In PubChem BioAssay AID504847 (National Center for Advancing Translational Sciences (NCATS), 2011):
Among all 400,000 compounds or so, about 3,700 (0.93%) were called active. Inconclusive means that the source gave no clear call. Such entries were picked first, then a sample of the others. The call rests on the fitted dose curve; in most records, active means well fitted inhibition curve with a large enough effect; inconclusive means small, poorly fitted or top-dose-only effect, or another doubt; inactive means no such curve, though single readings can be large or run the other way. A potency beside an inconclusive call is a rough fit, not a confirmed value.

Protein sequences, listed by entry. Tags and fused reporters are not part of them. Lines headed by an entry give the natural chain unless they say otherwise; changes in a name come on top.
UniProt P11473: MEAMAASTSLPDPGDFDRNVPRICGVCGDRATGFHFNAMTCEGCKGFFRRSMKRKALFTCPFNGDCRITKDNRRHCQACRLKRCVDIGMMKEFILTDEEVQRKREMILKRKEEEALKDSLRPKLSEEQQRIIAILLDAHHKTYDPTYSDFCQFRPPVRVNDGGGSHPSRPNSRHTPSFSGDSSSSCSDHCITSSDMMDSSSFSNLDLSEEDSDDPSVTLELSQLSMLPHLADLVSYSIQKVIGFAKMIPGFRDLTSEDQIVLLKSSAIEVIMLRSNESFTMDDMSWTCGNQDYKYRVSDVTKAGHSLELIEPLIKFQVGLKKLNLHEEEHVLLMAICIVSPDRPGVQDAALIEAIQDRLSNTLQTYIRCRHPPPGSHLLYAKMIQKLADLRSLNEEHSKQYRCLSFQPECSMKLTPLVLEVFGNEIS

Each compound was assayed against Vitamin D3 receptor (Homo sapiens) (UniProt P11473) (assay: Inhibitors of the vitamin D receptor (VDR): qHTS). Settings: VDR-SRC2-3 peptide fluorescence polarization, 2 h; max response, negative = inhibition: stronger effect = lower value.
Procedure, shortened: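 Fluorescence polarization assay of small-molecule disruption of VDR binding to coregulator peptide SRC2-3. Compounds and controls pin-transferred, then read after 2 h incubation at ambient room temperature.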
On the % scale 0 is the no-effect control and ±100 the full control effect; potency means the concentration at half of the fitted maximal effect.

Potency, active:
O=C1C(SCCO)=C(SCCO)C(=O)c2ccccc21 5.62 µM, COCCN(C(=S)Nc1c(C)cc(C)cc1C)C(C)c1cccnc1 (stereo not given) 44.7 µM, CN(Cc1ccco1)c1ncncc1-c1ccccc1C(F)(F)F 50.1 µM, CO/N=C(/C(=O)N[C@@H]1C(=O)N2C(C(=O)O)=C(CSc3nc(C)c(CC(=O)O)s3)CS[C@H]12)c1csc(N)n1 35.5 µM, CCOc1ccc(NC(=O)c2c(NC(=O)Cc3ccccc3)sc3c2CCC(C)C3)cc1 (stereo not given) 79.4 µM, O=C(/C=C/c1ccccc1)Nc1cccc(S(=O)(=O)Nc2ccccc2F)c1 11.2 µM, COc1ccc(-n2cnc(=S)[nH]c2=S)cc1 28.2 µM, CCOC(=O)CNc1nnc(SCC(=O)OCC)[nH]c1=O 39.8 µM, CNC(=O)c1nnsc1S(=O)(=O)c1ccc(Cl)cc1 10 µM, CCOc1ccc(CNc2ccc(N3CCCC3)cc2)cc1 3.98 µM

Potency, inconclusive:
CC(=O)c1ccc(N(CC(=O)Nc2cc(C)on2)S(=O)(=O)c2ccc(C)cc2)cc1 89.1 µM [inhibitor, single point], CCOc1ccc(NC(=S)Nc2ccc(OCC)cc2)cc1 39.8 µM [inhibitor, partial curve, poor fit], COc1cc(/C=C2/C(=O)N(c3ccc(Br)cc3)N=C2C)cc(OC)c1OC 89.1 µM [inhibitor, partial curve, poor fit], CCOC(=O)c1cccc(NC(=O)CCc2nc3cccnc3n2-c2ccccc2)c1 89.1 µM [inhibitor, single point], COc1cc(C(c2c(C)[nH][nH]c2=O)c2c(C)[nH][nH]c2=O)ccc1OCc1ccc([N+](=O)[O-])cc1 79.4 µM [inhibitor, partial curve, poor fit], NC(CSC1(c2ccccc2)c2ccccc2-c2ccccc21)C(=O)O (stereo not given) 89.1 µM [inhibitor, single point], CCOC(=O)c1c(C)oc2ccc(N(C(=O)c3ccncc3)S(=O)(=O)c3ccc(CC)cc3)cc12 79.4 µM [inhibitor, partial curve, poor fit], CC(C)(C)c1cc(-c2n[nH]c(=S)n2-c2ccc(Cl)cc2)n[nH]1 44.7 µM [inhibitor, single point], CCN(CC)c1ccc(C(=S)NC2CCCCC2)cc1 89.1 µM [inhibitor, single point], COc1ccc(C(CC(=O)c2ccc(C)cc2)C(C#N)C#N)cc1OC (stereo not given) 79.4 µM [inhibitor, single point], Cc1cc(C)cc(OCC(=O)OCC(=O)Nc2c(C)n(C)n(-c3ccccc3)c2=O)c1 79.4 µM [inhibitor, single point], C=CC1=C(C)C2=NC1=CC1=NC(=CC3=NC(=CC4=NC(=C2)C(C)=C4CCC(=O)O)C(CCC(=O)O)=C3C)C(C=C)=C1C.[Zn] 35.5 µM [inhibitor, single point], O=C(NCC1CCCO1)c1cc(-c2ccc(F)cc2)no1 (stereo not given) 89.1 µM [inhibitor, partial curve, poor fit], Nc1ccc(S(=O)(=O)Nc2nccc(/C=C/c3cccc(Br)c3)n2)cc1 39.8 µM [inhibitor, partial curve, poor fit], O=C(c1ccccc1)C(CCC(CN1CCOCC1)C(=O)c1ccccc1)CN1CCOCC1 (stereo not given) 50.1 µM [inhibitor, partial curve, poor fit], O=C1CCN(CCc2ccccc2)CCN1CCO 89.1 µM [inhibitor, single point], COc1ccc(NC(=O)/C(C#N)=C\c2cc(OC)c(OCc3ccc(C(=O)O)cc3)cc2Br)cc1 44.7 µM [inhibitor, partial curve], O=C(CCl)c1ccc(Cc2ncc(C(F)(F)F)cc2Cl)s1 50.1 µM [inhibitor, partial curve, poor fit], CCOC(=O)c1c(S(=O)(=O)Nc2ccc(C)cn2)c(C)n(C)c1C 28.2 µM [inhibitor, partial curve, poor fit], COc1cccc(Cn2c(=O)c(CCc3ccccc3)nc3cnc(N4CCN(C)CC4)nc32)c1 70.8 µM [inhibitor, partial curve, poor fit], CCOc1ccc(C2NC(=O)C(C#N)=C(S)N2c2ccc(OC)cc2)cc1OC (stereo not given) 22.4 µM [inhibitor, full curve, poor fit], CCc1cc(C(=O)c2ccc(OC)cc2)c(NC(=O)COCC(=O)O)s1 39.8 µM [inhibitor, partial curve, poor fit], CC(C)c1nc2sc(C(=O)O)c(N)c2c2c1CCCC2 56.2 µM [inhibitor, partial curve, poor fit], CC(C)=C[C@@H]1C[C@H](C)[C@H]2CC[C@H](C)c3c(O)c(O)c(C)c1c32 79.4 µM [inhibitor, partial curve, poor fit], COc1ccc(CC2=C(O)c3ccccc3C(=O)C2=O)cc1 20 µM [inhibitor, full curve, poor fit], Cc1cc(C)nc(SCCc2ccncc2)n1 89.1 µM [inhibitor, single point], CC(=O)Nc1ccc(OCCOc2ccc(/C=C3/C(=N)N4C=CSC4=NC3=O)cc2)cc1 22.4 µM [inhibitor, single point], Cc1ccc(NC(=O)CN2C(=O)N/C(=C/c3ccc(C)o3)C2=O)cc1 44.7 µM [inhibitor, partial curve, poor fit], COc1ccc(C(=O)C2C(=O)C(=O)N(Cc3ccco3)C2c2cccs2)cc1 (stereo not given) 56.2 µM [inhibitor, partial curve, poor fit], O=C(NNc1ccc(Cl)cc1)c1sccc1Cl 79.4 µM [inhibitor, partial curve, poor fit], COC(=O)Nc1ccc(S(=O)(=O)N2CCC(C(=O)N3CCC(C)CC3)CC2)cc1 25.1 µM [inhibitor, single point], CCCCN1C(=O)C(=O)N(CC(=O)NC2CCCc3ccccc32)C1=O (stereo not given) 89.1 µM [inhibitor, partial curve, poor fit], COCC(=O)N(C)C[C@H]1N[C@@](Cc2ccccc2)(C(=O)OC)[C@H]2C(=O)N(Cc3ccccc3)C(=O)[C@@H]12 89.1 µM [inhibitor, partial curve], COc1ccc2oc(=O)c(C(=O)Nc3ccccc3C)cc2c1 100 µM [inhibitor, single point], Clc1ccccc1-c1nnc2sc(-c3ccncc3)nn12 89.1 µM [inhibitor, single point], Cc1occc1C(=O)NNC(=S)Nc1ccccc1C(F)(F)F 89.1 µM [inhibitor, single point], CCCCCC(O)c1ccc([C@H]2CCC(=O)[C@@H]2CCCCCCC(=O)O)cc1 (stereo not given in full) 35.5 µM [inhibitor, partial curve, poor fit], C[C@@H]1CC=C[C@H]2[C@H]1C(=O)N(Cc1ccccc1)[C@H]2c1ccc(-c2ccoc2)cc1F 70.8 µM [inhibitor, single point]

Max response, negative = inhibition, inactive:
O=C(CCC(=O)N(CC(=O)NC1CCCCC1)Cc1ccccc1)Nc1nccs1 -10.8%, COC(=O)CCCC1=CC2=C(c3ccccc3)C(=O)C(C)(OC(=O)C3CCCC3)C(=O)C2=CN1CCCCO (stereo not given) 2.73%, COc1ccc(OCC(=O)NCCc2c[nH]c3ccccc23)cc1 -9.67%, O=C(C1CCN(S(=O)(=O)c2ccccc2)CC1)N1CCN(Cc2ccc3c(c2)OCO3)CC1 12.6%, CCOc1ccc(N(C)Cc2cc(=O)oc3ccc(OCC)cc23)cc1 -16.8%, Nn1c(SC/C=C/c2ccccc2)nnc1-c1ccncc1 -13.1%, CCc1cc(C(=O)N2CCCC(CCC(=O)NCc3cccc(OC)c3)C2)no1 (stereo not given) 22.8%, COCCN(C(=O)COc1ccccc1C#N)c1c(N)n(Cc2ccccc2)c(=O)[nH]c1=O -2.36%, CSC1=NSC2=NC(=O)/C(=C\c3ccc(OC(=O)c4ccco4)cc3)C(=N)N12 -0.714%, O=C1c2[nH]nc(-c3ccccc3O)c2C(c2ccccc2F)N1Cc1ccncc1 (stereo not given) 1.61%, CCOC(=O)C1(CCc2ccccc2)CCN(Cc2ccc(O)cc2)CC1 -4.71%, COc1cc(/C=C(/C(=O)O)c2ccc(-c3ccccc3)cc2)cc(OC)c1OC -6.49%, CCC(=O)N1CCCc2cc(S(=O)(=O)Nc3ccc(C)c(C)c3)ccc21 0.876%, CC(C)CC(=O)O/N=C1\C(=O)N(c2ccccc2)c2ccccc21 -19.1%, CC(CCc1ccco1)NC(=O)c1cccc2c1C(=O)N(C1CCCCC1)C2 (stereo not given) -20.1%, O=C(CSc1nnc(-c2ccccc2)o1)N1CCCc2ccccc21 -7.54%, NC(=O)c1sc2nc(-c3cccnc3)ccc2c1N 4.73%
